Source: patent US12133846B2, “Electrophilic androgen receptor (AR) antagonists for AR downregulation and ferroptosis induction in cancer cells” (priority 2019, dated 2024)
For at least one compound, name, drawing or mass did not settle the structure.

Assays:
Format in all cases: cell-based
[1] = test system: AR, AR-V7, c-Myc, HO-1, Hsp70; assay: Western blotting under BSO combination, VCaP cells; conditions: DFO 100 μM, Fer-1 1 μM, BSO 100 μM, 2-63 2.5 μM, 24 h
Description: (§1) It was first investigated if iron chelators or antioxidants could rescue the viability of drug combination-treated cells. […] HO-1 catalyzes the decomposition of heme into carbon monoxide, biliverdin, and Fe^2+. […] Both Fer-1 and the lipophilic antioxidant α-Toc can effectively scavenge radicals in phosphatidylcholine lipid bilayers and break the redox cycle that generates lipid hydroperoxide.
(§2) Western Blotting. […] Proteins in cell lysates (40 μg) were separated using electrophoresis on SDS-PAGE and transferred onto PVDF (polyvinylidenedifluoride) membranes. Membranes were blocked in 5% fat-free milk followed by incubation with primary antibodies overnight at 4° C., and the secondary horseradish peroxidase-conjugated anti-rabbit or anti-mouse antibodies. The blots were developed in the Enhanced Chemiluminescence mixture and detected by ImageQuant™ LAS 4000 imaging system (GE). Density of protein bonds were calculated and analyzed by using imageJ software downloaded from the National Institute of Health website.

22Rv1 cells = assay: Ferroptosis rescue of 2-63 plus BSO, MTT, 22Rv1 cells; conditions: BSO 100 μM 16 h, 2-63 5 μM 24 h; DFO 100 μM, α-Toc 100 μM, Fer-1 0.5 μM, ZnPP 3 μM
Description: as §1

AR-V7, Hsp70, HO-1 = assay: Western blotting under BSO combination, 22Rv1 cells; conditions: DFO 100 μM, BSO 100 μM, 2-63 2.5 μM
Description: as §1, §2

VCaP cells [2] = assay: 3-79 plus BSO, MTT viability, VCaP cells; conditions: 3-79 10 μM, BSO 100 μM; DFO 100 μM, α-Toc 100 μM, Fer-1 0.5 μM
Description: 3-79 and BSO effectively reduce the viability of VCaP cells. […] The viability loss of VCaP cells is rescued by antioxidants and iron chelators. […] Data (n=6-8) represent mean±SD obtained from MTT assay. Statistical significance was assessed by using two-tailed Student's t-tests. ***, P<0.001.

VCaP cells [3] = assay: Ferroptosis rescue/enhancement of 2-63 plus BSO, MTT, VCaP cells; conditions: BSO 100 μM 16 h, 2-63 2.5 μM 24 h; DFO 100 μM, α-Toc 100 μM, Fer-1 0.5 μM, ZnPP 3 μM
Description: as §1

Compound: CC(=O)N(O)CCCCCNC(=O)CCC(=O)N(O)CCCCCNC(=O)CCC(=O)N(O)CCCCCN [DFO, deferoxamine]
- rescue of AR/AR-V7 under 2-63 plus BSO, VCaP cells [1]: failed to rescue AR/AR-V7
- rescue of 2-63 plus BSO-caused viability loss, 22Rv1 cells (22Rv1 cells): significantly protected cells from viability loss
- effect on AR-V7, Hsp70 and HO-1 under 2-63 plus BSO, 22Rv1 cells (AR-V7, Hsp70, HO-1): neither recovers AR-V7 nor prevents the increased expression of Hsp70 and HO-1
- rescue of 3-79 plus BSO-induced viability loss, VCaP cells (VCaP cells [2]): rescued
- rescue of 2-63 plus BSO-caused viability loss, VCaP cells (VCaP cells [3]): significantly protected cells from viability loss
